{
  "source": "patent EP4840453A1",
  "about": "“CANCER TREATMENT AGENT CONTAINING CLK INHIBITOR AS ACTIVE INGREDIENT” (dated 2026)",
  "key": {"HL-60": {"system": "HL-60", "test": "Cell proliferation assay (ATPlite 1Step), single agents and combination with Compound A, curve-shift and CI; 72 h culture, 120 h for EPZ-6438, JQ1, MLN-4924, MLN-7243, MPI-0479605, NMS-P715"}, "NCI-H661": {"system": "NCI-H661", "test": "Cell proliferation assay (ATPlite 1Step), single agents and combination with Compound A, curve-shift and CI; 72 h culture, 120 h for EPZ-6438, JQ1, MLN-4924, MLN-7243, MPI-0479605, NMS-P715"}, "[1]": {"conditions": "blending ratio (Compound A : combined compound) 1:4, Fa 50"}, "[2]": {"conditions": "blending ratio (Compound A : combined compound) 4:1, Fa 50"}, "[3]": {"conditions": "blending ratio (Compound A : combined compound) 4:1, Fa 75"}},
  "note": "Structures were worked out from names or drawings and are uncertain.",
  "data": [
    {"smiles": "O=C(O)CSc1cc(NS(=O)(=O)c2ccc(Br)cc2)c2ccccc2c1O", "values": [
      {"measurement": "CI", "setting": "HL-60; Compound A + combined compound at fixed concentration 1 µM, Fa 90", "value": 0.75}
    ]},
    {"smiles": "Cc1c2oc3c(C)ccc(C(=O)N[C@@H]4C(=O)N[C@H](C(C)C)C(=O)N5CCC[C@H]5C(=O)N(C)CC(=O)N(C)[C@@H](C(C)C)C(=O)O[C@@H]4C)c3nc-2c(C(=O)N[C@@H]2C(=O)N[C@H](C(C)C)C(=O)N3CCC[C@H]3C(=O)N(C)CC(=O)N(C)[C@@H](C(C)C)C(=O)O[C@@H]2C)c(N)c1=O", "values": [
      {"measurement": "CI", "setting": "HL-60; [1]", "value": 1.04},
      {"measurement": "CI", "setting": "HL-60; [2]", "value": 0.91},
      {"measurement": "CI", "setting": "HL-60; [3]", "value": 1.04},
      {"measurement": "CI", "setting": "NCI-H661; blending ratio (Compound A : combined compound) 1:1, Fa 50", "value": 0.94},
      {"measurement": "CI", "setting": "NCI-H661; blending ratio (Compound A : combined compound) 1:1, Fa 90", "value": 0.60},
      {"measurement": "CI", "setting": "NCI-H661; [1]", "value": 0.94},
      {"measurement": "CI", "setting": "NCI-H661; [2]", "value": 0.93},
      {"measurement": "CI", "setting": "NCI-H661; [3]", "value": 0.24},
      {"measurement": "CI", "setting": "NCI-H661; blending ratio (Compound A : combined compound) 4:1, Fa 90", "value": 0.17}
    ]}
  ]
}
